# Measurements from the supplement of paper PMC9135407.
# Values joined by “and” are separate entries in the source; they are usually repeats but may differ in a detail not shown here. Identical values can stand only once. Counter-ions that a name gives are not always drawn. ± gives the standard deviation of the averaged measurements. The list shows a part of the results. Baselines shift from plate to plate; read single values as rough.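 Primary human stellate myofibroblasts activated in culture; inactivation shown by regained lipid droplets. Readout: fraction of Hoechst-counted cells exceeding a per-plate Bodipy threshold, duplicate wells, each plate with DMSO negative and nortriptyline positive controls. Hits: control-normalized score beyond the plate's top-tenth-percentile nortriptyline wells, or among its three best wells. Final well concentrations unstated.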
# Tested on: primary human hepatic stellate cells (donor 1)
# Assay: percent Bodipy-positive cells; higher = more lipid droplet accumulation
# Details: 48 h
# [1] = library stock concentration: 10 mM
# [2] = library stock concentration: 80 uM
# [3] = library stock concentration: 400 uM
# [4] = library stock concentration: 2 mM
# [5] = library stock concentration: 3.33 mM
# [6] = library stock concentration: 1 mM
smiles,measurement,setting,value
NC1(C(=O)O)CCCCC1 [1-Amino-1-cyclohexanecarboxylic acid hydrochloride],percent Bodipy-positive cells,[1],33.8 ± 5.7%
COc1cc2c(Nc3ccc(NC(=O)c4ccccc4)cc3)ncnc2cc1OCCCN1CCOCC1,percent Bodipy-positive cells,[2],18.8 ± 5.1%
same,percent Bodipy-positive cells,[3],19.6 ± 11%
same,percent Bodipy-positive cells,[4],35.8 ± 2.2%
CC(=O)Nc1ccc(C(=O)Nc2ccccc2N)cc1 [CI994 (Tacedinaline)],percent Bodipy-positive cells,[5],11.1 ± 0.66%
same,percent Bodipy-positive cells,[1],57.1 ± 12%
CC(Cc1cccc(C(F)(F)F)c1)NCCOC(=O)c1ccccc1 (stereo not drawn) [Benfluorex hydrochloride],percent Bodipy-positive cells,,59.1 ± 1.1%
same,percent Bodipy-positive cells,[1],21.2 ± 4.2%
COc1cc2c(NC3CCN(C(C)C)CC3)nc(C3CCCCC3)nc2cc1OCCCN1CCCC1,percent Bodipy-positive cells,[2],57.6 ± 7.7%
same,percent Bodipy-positive cells,[3],62.1 ± 12%
same,percent Bodipy-positive cells,[4],100%
same,percent Bodipy-positive cells,[1],100%
O=C(O)[C@]1(Cc2cccc(Nc3nccs3)n2)CC[C@@H](Oc2cccc(Cl)c2F)CC1,percent Bodipy-positive cells,[5],11 ± 5.8%
same,percent Bodipy-positive cells,[1],29.9 ± 6%
CCCCC/C=C\C/C=C\C/C=C\C/C=C\CCCCCC(=O)O [Adrenic Acid],percent Bodipy-positive cells,[6],9.29 ± 2.3%
C#Cc1cccc(Nc2ncnc3cc(OC)c(OCCCCCCC(=O)NO)cc23)c1,percent Bodipy-positive cells,[5],54.6 ± 6.2%
same,percent Bodipy-positive cells,[1],57.6 ± 3.3%
CC(=O)S[C@@H]1CC2=CC(=O)CC[C@]2(C)[C@H]2CC[C@@]3(C)[C@@H](CC[C@@]34CCC(=O)O4)[C@H]12 [Spironolactone],percent Bodipy-positive cells,,21.7 ± 2.1%
same,percent Bodipy-positive cells,[5],13 ± 4.9%
same,percent Bodipy-positive cells,library stock concentration: 4.8 mM,8.37% and 11.8%
CCCCCCCCCCCCCCCCCC=CC(=O)O [.DELTA.2-cis Eicosenoic Acid],percent Bodipy-positive cells,[6],6.23 ± 2.1%
CCCc1cc(C(N)=S)ccn1 [Prothionamide],percent Bodipy-positive cells,[1],48.5 ± 17%
CCCc1cc(C(N)=S)ccn1 [Protionamide],percent Bodipy-positive cells,[5],20.2 ± 6.6%
same,percent Bodipy-positive cells,[1],11 ± 3.3%
CC(C)(C)NC[C@@H](O)COc1cccc2c1CCCC2=O [(+) -Levobunolol hydrochloride],percent Bodipy-positive cells,,15.08 ± 0.12%
CO[C@H]1/C=C/O[C@@]2(C)Oc3c(C)c(O)c4c(O)c(c(/C=N/N5CCN(C6CCCC6)CC5)c(O)c4c3C2=O)NC(=O)/C(C)=C\C=C\[C@H](C)[C@H](O)[C@@H](C)[C@@H](O)[C@@H](C)[C@H](OC(C)=O)[C@@H]1C [Rifapentine],percent Bodipy-positive cells,[5],8.92 ± 2%
same,percent Bodipy-positive cells,[1],11.9 ± 6.9%
N=C(N)NC(=N)NCCc1ccccc1 [Phenformin HCl],percent Bodipy-positive cells,[5],18.2 ± 14%
same,percent Bodipy-positive cells,[1],10.7 ± 1.5%
N=C(N)NC(=N)NCCc1ccccc1 [Phenformin hydrochloride],percent Bodipy-positive cells,,28 ± 2%
same,percent Bodipy-positive cells,library stock concentration: 8.3 mM,15.9 ± 6.7%
O=c1[nH]c(C2CCCN2)nc2c1oc1ccc(Cl)cc12 (stereo not drawn),percent Bodipy-positive cells,[2],9.02 ± 3.4%
same,percent Bodipy-positive cells,[3],11.9 ± 2.5%
same,percent Bodipy-positive cells,[4],4.28 ± 1.4%
same,percent Bodipy-positive cells,[1],8.92 ± 1%
CCCCCCCCCCCCC/C=C/[C@@H](O)[C@H](CO)NC(=O)CCCCCCC [C-8 Ceramide],percent Bodipy-positive cells,[6],9.16 ± 0.88%
CCCCCCCCCCCCC/C=C/[C@@H](O)[C@H](CO)NC(=O)CCCCCCC [C8 Ceramide],percent Bodipy-positive cells,[6],17.7 ± 20%
CN1CCC(=C2c3ccccc3C=Cc3ccccc32)CC1 [Cyproheptadine hydrochloride],percent Bodipy-positive cells,library stock concentration: 6.2 mM,80.6 ± 14%
CN1CCC(=C2c3ccccc3C=Cc3ccccc32)CC1 [Cyproheptadine],percent Bodipy-positive cells,library stock concentration: 7 mM,44.5 ± 15%
CN1CCC(=C2c3ccccc3C=Cc3ccccc32)CC1 [Cyproheptadine HCl],percent Bodipy-positive cells,[5],56.9 ± 1.9%
same,percent Bodipy-positive cells,[1],75.9 ± 3.3%
CN1CCC(=C2c3ccccc3C=Cc3ccccc32)CC1,percent Bodipy-positive cells,[1],79.2 ± 8.3%
O=C(O)CCC/C=C\C[C@@H]1[C@@H](/C=C/[C@@H](O)C2Cc3ccccc3C2)[C@@H](F)C[C@@H]1O,percent Bodipy-positive cells,[6],18 ± 6.3%
NCC(O)C1CCCCCCC1 (stereo not drawn) [2-Cyclooctyl-2-hydroxyethylamine hydrochloride],percent Bodipy-positive cells,[1],82.8 ± 8.6%
CCCCC[C@H](O)/C=C/[C@@H]1[C@@H](CCCCCCC(=O)O)[C@H](O)C[C@H]1O [Prostaglandin F1.beta.],percent Bodipy-positive cells,[6],14.9 ± 1.3%
CN1CCN(CC/C=C2/c3ccccc3Sc3ccc(S(=O)(=O)N(C)C)cc32)CC1,percent Bodipy-positive cells,[1],92.1 ± 1.1%
CN1CCN(CC/C=C2/c3ccccc3Sc3ccc(S(=O)(=O)N(C)C)cc32)CC1 [Thiothixene],percent Bodipy-positive cells,[1],66.8 ± 3.2%
CNC1CCCN(c2c(F)cc3c(=O)c(C(=O)O)cn(C4CC4)c3c2OC)C1 (stereo not drawn) [Balofloxacin],percent Bodipy-positive cells,[5],14.5 ± 2.2%
same,percent Bodipy-positive cells,[1],12.27 ± 0.064%
C[C@H]1O[C@H](O[C@H]2[C@H](O)[C@@H](O)[C@@H](O[C@H]3[C@H](O)[C@@H](O)C(O)O[C@@H]3CO)O[C@@H]2CO)[C@H](O)[C@@H](O)[C@@H]1N[C@H]1C=C(CO)[C@@H](O)[C@H](O)[C@H]1O (stereo partly drawn) [Acarbose],percent Bodipy-positive cells,library stock concentration: 3.1 mM,6.77 ± 2.1%
same,percent Bodipy-positive cells,[5],7.14 ± 3.1%
same,percent Bodipy-positive cells,[1],12.6% and 4.59%
C[C@H]1O[C@H](O[C@H]2[C@H](O)[C@@H](O)[C@@H](O[C@H]3[C@H](O)[C@@H](O)C(O)O[C@@H]3CO)O[C@@H]2CO)[C@H](O)[C@@H](O)[C@@H]1N[C@H]1C=C(CO)[C@@H](O)[C@H](O)[C@H]1O (stereo partly drawn),percent Bodipy-positive cells,[1],15.8 ± 6.7%
C[C@@H](Oc1ccc2[nH]nc(/C=C/c3cnn(CCO)c3)c2c1)c1c(Cl)cncc1Cl,percent Bodipy-positive cells,[2],9.05 ± 1.4%
same,percent Bodipy-positive cells,[3],11.6 ± 2.8%
same,percent Bodipy-positive cells,[4],13.3 ± 4%
same,percent Bodipy-positive cells,[1],46.4 ± 8.5%
CC(C)(CO)[C@@H](O)C(=O)NCCC(=O)NCCSSCCNC(=O)CCNC(=O)[C@H](O)C(C)(C)CO,percent Bodipy-positive cells,[1],21 ± 13%
O=C(O)c1cn(-c2ccc(F)cc2)c2cc(N3CCNCC3)c(F)cc2c1=O [Sarafloxacin hydrochloride],percent Bodipy-positive cells,library stock concentration: 4.7 mM,9.81 ± 0.9%
same,percent Bodipy-positive cells,[1],39.3 ± 5.4%
O=C(O)c1cn(-c2ccc(F)cc2)c2cc(N3CCNCC3)c(F)cc2c1=O [Sarafloxacin HCl],percent Bodipy-positive cells,library stock concentration: 5.2 mM,8.13 ± 0.57%
COc1cccc(/C=N/N=C/c2cccc(OC)c2)c1,percent Bodipy-positive cells,[1],5.66 ± 1.7%
C[C@@H](NCc1cc(Br)cc2[nH]c(=O)c(=O)[nH]c12)P(=O)(O)O,percent Bodipy-positive cells,[1],7 ± 2.9%
C[C@@H]1C[C@H]2[C@@H]3C[C@H](F)C4=CC(=O)C=C[C@]4(C)[C@@]3(F)[C@@H](O)C[C@]2(C)[C@@]1(O)C(=O)CO [Flumethasone],percent Bodipy-positive cells,,8.75 ± 2.8%
same,percent Bodipy-positive cells,[5],8.61 ± 0.93%
same,percent Bodipy-positive cells,library stock concentration: 4.9 mM,3.85 ± 0.64%
same,percent Bodipy-positive cells,[1],23.8 ± 3.9%
O=C(NC[C@H]1CN(c2ccc(N3CCOCC3=O)cc2)C(=O)O1)c1ccc(Cl)s1 [Rivaroxaban],percent Bodipy-positive cells,[5],5.98 ± 0.39%
same,percent Bodipy-positive cells,[1],17.4 ± 11%
CC(C)c1nn(-c2c(Cl)cccc2Cl)c2nc(Cc3ccc(OCCO)cc3)[nH]c(=O)c12,percent Bodipy-positive cells,[2],41.8 ± 8.6%
same,percent Bodipy-positive cells,[3],44.4 ± 6.2%
same,percent Bodipy-positive cells,[4],42.4 ± 0.96%
same,percent Bodipy-positive cells,[1],40.1 ± 1.2%
O=C(O)Cc1ccc(-c2ccccc2)cc1 [Felbinac],percent Bodipy-positive cells,,9.38 ± 1.2%
COc1cc(N2CCC(N3CCN(C)CC3)CC2)ccc1Nc1ncc(Cl)c(-c2c[nH]c3ccccc23)n1,percent Bodipy-positive cells,[2],15.9 ± 4.6%
same,percent Bodipy-positive cells,[3],30.9 ± 4.7%
Cc1cc2c(cc1CC(=O)c1sccc1S(=O)(=O)Nc1onc(C)c1Cl)OCO2 [Sitaxentan sodium],percent Bodipy-positive cells,[5],6.31 ± 3.5%
same,percent Bodipy-positive cells,[1],13.8 ± 3.8%
